In paper PMC10855902 (International Journal of Molecular Sciences, 2024):

Assay: general procedure: Fmoc solid-phase peptide synthesis; DMT/NMM/TosO-, NMM
Conditions: whole synthesis, HPLC (10-100% B in 30 min, Method 1), scale of the general procedure 0.5 g resin

Row | Substance | crude HPLC purity
1 | ^43QYRDL^47 | 75.1%
2 | ^10HDGYCL^15+^29Y+^41R | 81.5%
3 | ^38IGERCQ^43 | 90%
4 | ^13YCLHDGV^19 | 89.5%
5 | ^10HDGYCLHDGVCMY^22 | 91.7%
6 | ^26LDKYACNCV^34 | 79.2%
7 | ^10HDGYCL^15 | 84.5%
8 | ^22YIEALDK^28 | 83.0%
9 | ^34VVGYIGERCQYRDL^47 | 87.7%
